This is an account of results in PubChem BioAssay AID1508600 (Functional Genomics Laboratory (NCATS/FGL), 2020).

The whole screen tested about 53,000 sequences, of which about 3,700 (7%) were called active.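 The calls were made as follows: active = gene knockdowns whose robust z-score for IL-1 alpha signal is at least 2 or at most -2, so actives lie on both sides; inactive = the rest.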 Some of the results follow.

The experiment in a line: Components of the Cytosolic LPS Sensing Pathway: Gene Identification via Genome-wide siRNA Screen.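 Also: robust z of the log signal after scaling to non-targeting control siRNA wells of the plate.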 The settings on record: RAW264.7 macrophages, IL-1a HTRF, actives lie on both sides, screened at 100 nM (by protocol), cells primed 5 h with Pam3CSK4 first. In short, it runs like this: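 Knockdown: 100 nM siRNA, 48h, RAW264.7. Stimulation: Pam3CSK4 5 h, then LipidA via TransIT-TKO 24 h. Output: supernatant IL-1a HTRF, negative-control-normalized, log robust z-score; viability by CellTiter-Glo.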
Regarding GGAUGUUACCUUGGUGGGUTT against Olfr1323, the z-score is inactive: 0.269.
As to GGGAUCCUUAAUAUUUUGATT against Dazap2, the z-score was inactive: 1.66.
Under GGUUCUACUCUAUCAAGGATT against Nlrp3 stands inactive: 0.449.
For GGUUUCUUUCUCUGAGUUUTT against Man2a1, the z-score is inactive: 1.62.
As to GGAAACCUCAUACAAAACATT against Tex14, the z-score is inactive: -0.396.
As to GCCUACAUAACCUUAAUAUTT against Slc4a10, the z-score was active: 2.2.
For GGAGAAAAUAACUUGUUUCTT against Ssr3, the z-score was inactive: -0.189.
Take GGCAACAAGAGCUUUACUCTT against Gabrp: the z-score is inactive: -0.0644.
To GGAUCAUCCAAGUGUUCCGTT against Olfr555 belongs inactive: 1.51.
For the sequence “GCAAGUCUCUGCGCUAUUATT against 4931417E11Rik”, the z-score is inactive: 0.813.
To GGAUGCUGUGAGAAGAACUTT against Olfr1416 belongs inactive: 0.951; to GGGUUUAGAGACCCUGAGATT against Klc2, active: -2.09; to GGAACAAUUGUUUGAACCCTT against Fem1a, inactive: -0.116.
On to GGAAGACUCUGAAUUAGGGTT against Dusp13, for which the z-score was inactive: -0.28.
In the case of CCAGAUAAACCAUAUCCCATT against Flrt2, the z-score was inactive: -1.06.
In the case of GCCAUGGUAAACAUCUUAUTT against Olfr827, the z-score was inactive: -1.38.
Under GGAAGCCAUCAUGAAAAUGTT against Zfand3 stands inactive: 0.184.
Under GCUAAGAACUUGAUCAACCTT against Camk2g stands inactive: -0.673; under GGCUCAGAAUUAUCUUAGATT against Mmp7, inactive: -0.478; under GGUCGCUACGUUUCUACAATT against Loxl1, inactive: 0.108.
Consider GGAUGAAGACCUUUCGGAGTT against Mapk8ip1, for which the z-score was inactive: 0.0581.
As to GGCAACUUUAUACACAAACTT against Vmn1r13, the z-score was inactive: -0.283.
GGUUAAAGGUCAGAUUUAGTT against Dapk2: the z-score was active: 2.54.
For GGUAAUUCGGUUCAAACCATT against Henmt1, the z-score was inactive: -0.873.
On to GCUCGCUCUCAAAUUUUCGTT against Catsper1, for which the z-score was inactive: -0.446.
Turning to GGAGCUACAGGCUAUCAGUTT against Bpi, the z-score is inactive: -1.78.
Take GGUACAGAACUCAUUUUUGTT against Grm6: the z-score was inactive: 0.167.
To GGUAGGGACCUAUCCUUGGTT against Cramp1l belongs inactive: -0.518; to GGAGAAACAGCAGUACUUGTT against Hmg20b, inactive: 0.0903.
